From publication PMC12238516
These are yes or no findings as the source states them, for the method shown. In cells and extracts the contact can be indirect. Some binding calls cover weakened binding; strength is not graded here. Each block holds one binder with its values, some of them ahead of it.

Assays:
[1] = target: T1, TRAF2, endogenous (human (endogenous in AGS)) (UniProt Q12933); experiment: co-IP
T1 sequence: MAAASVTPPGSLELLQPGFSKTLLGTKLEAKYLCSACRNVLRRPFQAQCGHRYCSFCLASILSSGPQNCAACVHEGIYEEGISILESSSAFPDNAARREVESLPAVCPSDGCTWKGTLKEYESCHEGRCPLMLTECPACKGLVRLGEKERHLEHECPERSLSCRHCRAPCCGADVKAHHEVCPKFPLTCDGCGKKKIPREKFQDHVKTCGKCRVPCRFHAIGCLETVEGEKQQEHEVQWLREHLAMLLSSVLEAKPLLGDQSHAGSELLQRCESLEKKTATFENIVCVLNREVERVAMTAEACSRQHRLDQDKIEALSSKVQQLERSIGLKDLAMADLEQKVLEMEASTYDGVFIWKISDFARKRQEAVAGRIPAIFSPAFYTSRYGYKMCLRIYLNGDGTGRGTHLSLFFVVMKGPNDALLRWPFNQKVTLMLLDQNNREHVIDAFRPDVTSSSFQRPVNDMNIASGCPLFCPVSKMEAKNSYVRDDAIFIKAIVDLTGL

[2] = target: T2, TRAF2, endogenous (human (endogenous in AGS)), Q12933; experiment: co-IP; IP with anti-TRAF2 antibody from total lysates of WT and CYLD^KO_1 AGS cells, uninfected or infected with H. pylori; immunoblot; settings: remark: other sources report otherwise
T2 chain: T1 sequence

binding [1]: binds
B1: TIFA (TRAF-interacting protein with forkhead-associated domain), endogenous (protein, UniProt Q96CG3 1-184)
chain: MTSFEDADTEETVTCLQMTVYHPGQLQCGIFQSISFNREKLPSSEVVKFGRNSNICHYTFQDKQVSRVQFSLQLFKKFNSSVLSFEIKNMSKKTNLIVDSRELGYLNKMDLPYRCMVRFGEYQFLMEKEDGESLEFFETQFILSPRSLLQENNWPPHRPIPEYGTYSLCSSQSSSPTEMDENES

binding [2]: binds
B2: A20 (tumor necrosis factor alpha-induced protein 3), endogenous, P21580 1-790 (protein)
chain: MAEQVLPQALYLSNMRKAVKIRERTPEDIFKPTNGIIHHFKTMHRYTLEMFRTCQFCPQFREIIHKALIDRNIQATLESQKKLNWCREVRKLVALKTNGDGNCLMHATSQYMWGVQDTDLVLRKALFSTLKETDTRNFKFRWQLESLKSQEFVETGLCYDTRNWNDEWDNLIKMASTDTPMARSGLQYNSLEEIHIFVLCNILRRPIIVISDKMLRSLESGSNFAPLKVGGIYLPLHWPAQECYRYPIVLGYDSHHFVPLVTLKDSGPEIRAVPLVNRDRGRFEDLKVHFLTDPENEMKEKLLKEYLMVIEIPVQGWDHGTTHLINAAKLDEANLPKEINLVDDYFELVQHEYKKWQENSEQGRREGHAQNPMEPSVPQLSLMDVKCETPNCPFFMSVNTQPLCHECSERRQKNQNKLPKLNSKPGPEGLPGMALGASRGEAYEPLAWNPEESTGGPHSAPPTAPSPFLFSETTAMKCRSPGCPFTLNVQHNGFCERCHNARQLHASHAPDHTRHLDPGKCQACLQDVTRTFNGICSTCFKRTTAEASSSLSTSLPPSCHQRSKSDPSRLVRSPSPHSCHRAGNDAPAGCLSQAARTPGDRTGTSKCRKAGCVYFGTPENKGFCTLCFIEYRENKHFAAASGKVSPTASRFQNTIPCLGRECGTLGSTMFEGYCQKCFIEAQNQRFHEAKRTEEQLRSSQRRDVPRTTQSTSRPKCARASCKNILACRSEELCMECQHPNQRMGPGAHRGEPAPEDPPKQRCRAPACDHFGNAKCNGYCNECFQFKQMYG
